From paper PMC6488673, “Crystal structure of the Lin28-interacting module of human terminal uridylyltransferase that regulates let-7 expression”

The chains behind the UniProt entries cited, without tags or fusion partners. Where a name states a change or a piece, a line headed by the entry shows the natural chain unless it says otherwise.
UniProt Q5TAX3: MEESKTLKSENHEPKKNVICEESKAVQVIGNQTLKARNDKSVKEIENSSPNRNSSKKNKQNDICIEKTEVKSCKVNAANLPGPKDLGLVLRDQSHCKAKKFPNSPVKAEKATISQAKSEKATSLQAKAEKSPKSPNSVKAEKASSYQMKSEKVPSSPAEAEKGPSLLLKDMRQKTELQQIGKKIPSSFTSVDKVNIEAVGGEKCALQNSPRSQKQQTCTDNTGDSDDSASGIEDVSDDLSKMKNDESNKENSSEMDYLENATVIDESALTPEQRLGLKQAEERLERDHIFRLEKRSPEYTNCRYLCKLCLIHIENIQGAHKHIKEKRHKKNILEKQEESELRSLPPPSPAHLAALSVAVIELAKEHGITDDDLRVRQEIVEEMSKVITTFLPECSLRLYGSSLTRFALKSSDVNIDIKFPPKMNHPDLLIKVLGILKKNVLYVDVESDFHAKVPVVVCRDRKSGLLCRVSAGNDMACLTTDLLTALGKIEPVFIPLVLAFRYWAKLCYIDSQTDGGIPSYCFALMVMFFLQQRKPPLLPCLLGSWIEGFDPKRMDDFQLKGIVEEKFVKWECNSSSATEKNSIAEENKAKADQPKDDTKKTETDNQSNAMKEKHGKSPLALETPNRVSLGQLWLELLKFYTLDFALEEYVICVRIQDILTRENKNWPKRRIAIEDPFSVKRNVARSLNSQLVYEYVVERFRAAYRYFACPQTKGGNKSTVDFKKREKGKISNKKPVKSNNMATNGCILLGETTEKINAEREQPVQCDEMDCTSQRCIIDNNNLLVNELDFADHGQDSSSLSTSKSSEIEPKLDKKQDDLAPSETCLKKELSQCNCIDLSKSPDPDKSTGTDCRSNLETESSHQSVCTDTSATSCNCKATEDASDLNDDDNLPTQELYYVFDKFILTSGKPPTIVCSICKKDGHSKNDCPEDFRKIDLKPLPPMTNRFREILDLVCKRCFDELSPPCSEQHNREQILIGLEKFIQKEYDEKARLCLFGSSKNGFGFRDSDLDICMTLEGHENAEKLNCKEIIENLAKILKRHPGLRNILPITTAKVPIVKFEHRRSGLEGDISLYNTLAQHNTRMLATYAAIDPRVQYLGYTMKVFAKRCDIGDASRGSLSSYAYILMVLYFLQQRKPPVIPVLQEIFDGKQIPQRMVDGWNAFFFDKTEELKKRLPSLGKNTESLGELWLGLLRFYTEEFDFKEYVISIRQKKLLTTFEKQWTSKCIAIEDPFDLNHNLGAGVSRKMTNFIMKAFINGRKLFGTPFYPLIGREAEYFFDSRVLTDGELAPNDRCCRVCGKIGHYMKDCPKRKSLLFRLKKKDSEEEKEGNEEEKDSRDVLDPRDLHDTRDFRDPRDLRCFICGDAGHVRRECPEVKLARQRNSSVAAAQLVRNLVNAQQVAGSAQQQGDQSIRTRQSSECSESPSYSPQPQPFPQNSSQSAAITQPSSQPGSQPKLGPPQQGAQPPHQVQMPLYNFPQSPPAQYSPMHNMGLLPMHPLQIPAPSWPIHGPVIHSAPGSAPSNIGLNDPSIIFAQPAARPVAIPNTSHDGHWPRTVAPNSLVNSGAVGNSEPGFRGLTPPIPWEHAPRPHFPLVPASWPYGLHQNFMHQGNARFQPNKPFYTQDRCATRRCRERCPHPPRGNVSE

Target: T1, recombinant human Lin28A (residues 1-209) (human) (UniProt Q9H9Z2)
T1 sequence: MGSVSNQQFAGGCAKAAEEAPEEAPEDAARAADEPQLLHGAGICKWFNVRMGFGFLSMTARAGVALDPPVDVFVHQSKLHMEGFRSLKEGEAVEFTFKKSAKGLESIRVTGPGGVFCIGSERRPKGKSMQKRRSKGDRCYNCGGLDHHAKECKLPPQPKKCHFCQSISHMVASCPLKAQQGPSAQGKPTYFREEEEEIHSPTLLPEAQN
Experiment: condition: 300 nM hTUT4 protein, 300 nM hLin28A, 100 nM pre-let-7a-1; native gel or EMSA; 300 nM recombinant hTUT4 protein with 100 nM pre-let-7a-1, with or without 300 nM recombinant hLin28A; 50 mM Tris-HCl pH 8.5, 100 mM NaCl, 10 mM MgCl2, 10 mM β-mercaptoethanol, 10% glycerol, 10 min at room temperature; native polyacrylamide gel stained with ethidium bromide; both purified

**Q.** How did the binding turn out when “hTUT4_N_ΔZ (human TUT4 residues 334-723) (from UniProt Q5TAX3) (domain or fragment)” was run?
**A.** The binding was “no binding”.

These are yes or no findings as the source states them, for the method shown.
